Data reported in PMC4935975, “A neomorphic cancer cell-specific role of MAGE-A4 in trans-lesion synthesis” (Nature Communications, 2016).
These are yes or no findings as the source states them, for the method shown. Binding seen in cells or lysates may run through a third protein. Some entries that bind do so weakly or less than the wild type. For part of these data: Where a sequence is shown, tags or fusion partners need not be part of it.

Sequences of proteins named here, by UniProt entry; tags and fusion partners are left off. A change or cut given only in a name is not applied to a line headed by its entry. A line that says so, or that is headed by a name, gives the form on record, which may keep a tag or linker. Residues count along the entry.
UniProt Q9NS91: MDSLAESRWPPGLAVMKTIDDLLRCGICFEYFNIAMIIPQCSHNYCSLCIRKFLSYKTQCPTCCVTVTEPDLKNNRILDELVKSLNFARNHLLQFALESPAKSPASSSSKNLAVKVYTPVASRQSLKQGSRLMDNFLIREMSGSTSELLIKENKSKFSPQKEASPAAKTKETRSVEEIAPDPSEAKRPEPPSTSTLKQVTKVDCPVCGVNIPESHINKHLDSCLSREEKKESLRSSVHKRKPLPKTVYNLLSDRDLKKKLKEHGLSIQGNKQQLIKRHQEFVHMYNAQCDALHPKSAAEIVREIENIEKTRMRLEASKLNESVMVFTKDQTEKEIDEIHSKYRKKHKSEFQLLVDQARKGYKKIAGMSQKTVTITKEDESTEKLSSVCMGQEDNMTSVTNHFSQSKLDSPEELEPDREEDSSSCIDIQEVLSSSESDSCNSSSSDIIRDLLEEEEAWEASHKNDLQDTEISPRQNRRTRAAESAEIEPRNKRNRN
GST–RAD18 267-402: residues 267-402 of Q9NS91
HA–RAD18 Δ340–395 (ΔR6BD) (Q9NS91, form named): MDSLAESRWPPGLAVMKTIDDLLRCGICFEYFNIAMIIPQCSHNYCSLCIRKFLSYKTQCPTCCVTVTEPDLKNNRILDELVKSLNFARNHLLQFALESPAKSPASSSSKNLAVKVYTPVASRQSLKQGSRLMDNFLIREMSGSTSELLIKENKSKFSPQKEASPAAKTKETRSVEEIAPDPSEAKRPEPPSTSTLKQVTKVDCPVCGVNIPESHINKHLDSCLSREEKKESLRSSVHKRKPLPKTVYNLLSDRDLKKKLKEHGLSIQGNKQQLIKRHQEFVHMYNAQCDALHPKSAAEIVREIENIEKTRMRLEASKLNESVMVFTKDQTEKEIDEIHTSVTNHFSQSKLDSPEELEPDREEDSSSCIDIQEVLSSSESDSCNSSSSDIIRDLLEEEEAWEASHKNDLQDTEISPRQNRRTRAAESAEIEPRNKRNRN
UniProt P43358: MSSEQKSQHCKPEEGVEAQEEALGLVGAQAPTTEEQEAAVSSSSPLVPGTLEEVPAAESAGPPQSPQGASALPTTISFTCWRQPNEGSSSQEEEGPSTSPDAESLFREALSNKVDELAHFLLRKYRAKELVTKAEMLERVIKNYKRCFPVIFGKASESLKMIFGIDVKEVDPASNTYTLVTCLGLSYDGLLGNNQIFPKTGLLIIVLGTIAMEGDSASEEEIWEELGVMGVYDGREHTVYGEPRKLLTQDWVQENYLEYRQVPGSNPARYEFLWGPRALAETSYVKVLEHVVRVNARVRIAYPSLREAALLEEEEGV

Key:
GST–RAD18 267-402 = GST–RAD18 267-402 (UniProt Q9NS91); experiment: pull-down; recombinant GST fusion (100 ng) incubated with 100 μg cleared cell lysate in 1 ml CSK, 2 h at 4 °C; glutathione sepharose beads, 2 h more at 4 °C; washed three times in CSK+1% BSA; immunoblot; only the target purified
HA–RAD18 wild type = HA–RAD18 wild type (UniProt Q9NS91); experiment: co-IP; H1299 cell extracts in CSK buffer; magnetic beads with covalently conjugated antibodies against the epitope tag (HA or MYC), overnight at 4 °C, five washes in CSK; immunoblot; in Fig. 1d cells untreated or treated with CPT (2 μM) or UVC (20 J m^-2)
[1] = target: HA–RAD18 Δ340–395 (ΔR6BD) (UniProt Q9NS91); experiment: as above
MYC–RAD18 = MYC–RAD18 (UniProt Q9NS91); experiment: as above
MYC–TRIM69 = target: T1, MYC–TRIM69 (UniProt Q86WT6); experiment: as above
T1 sequence: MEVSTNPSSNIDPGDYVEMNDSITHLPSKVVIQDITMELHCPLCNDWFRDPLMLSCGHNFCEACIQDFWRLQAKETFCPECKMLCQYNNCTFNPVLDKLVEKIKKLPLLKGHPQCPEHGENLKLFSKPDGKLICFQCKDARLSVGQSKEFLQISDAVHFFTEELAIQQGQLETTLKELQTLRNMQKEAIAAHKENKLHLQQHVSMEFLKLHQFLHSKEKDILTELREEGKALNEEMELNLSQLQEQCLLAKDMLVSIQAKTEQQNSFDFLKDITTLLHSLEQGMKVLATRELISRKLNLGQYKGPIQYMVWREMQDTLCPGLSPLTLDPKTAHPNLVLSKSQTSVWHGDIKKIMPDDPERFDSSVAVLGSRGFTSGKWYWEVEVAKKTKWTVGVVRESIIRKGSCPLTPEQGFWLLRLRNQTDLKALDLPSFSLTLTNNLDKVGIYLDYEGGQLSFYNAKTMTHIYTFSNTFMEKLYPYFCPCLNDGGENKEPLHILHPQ

[2] = target: GST–MAGE-A4 (human (open reading frame amplified from H1299 genomic DNA)) (UniProt P43358); experiment: pull-down; recombinant GST fusion (100 ng) incubated with 100 μg cleared cell lysate in 1 ml CSK, 2 h at 4 °C; glutathione sepharose beads, 2 h more at 4 °C; washed three times in CSK+1% BSA; immunoblot; only the target purified

binding (GST–RAD18 267-402)	binding (HA–RAD18 wild type)	binding [1]	binding (MYC–RAD18)	binding (MYC–TRIM69)	binding [2]	Substance
binds	binds	no binding	binds	binds	–	melanoma antigen-A4 (MAGE-A4) (from UniProt P43358 1-317)
–	–	–	–	–	binds	RAD18 (from UniProt Q9NS91 1-495) (enzyme)
